Measurements: article PMC8438024
No constants are given. Whether binding was seen depends on the method and setting. In cells and extracts the contact can be indirect. Some entries that bind do so weakly or less than the wild type. Each block holds one binder with its values, some of them ahead of it.

Sequences of proteins named here, by UniProt entry; tags and fusion partners are left off.
UniProt Q9UKV8: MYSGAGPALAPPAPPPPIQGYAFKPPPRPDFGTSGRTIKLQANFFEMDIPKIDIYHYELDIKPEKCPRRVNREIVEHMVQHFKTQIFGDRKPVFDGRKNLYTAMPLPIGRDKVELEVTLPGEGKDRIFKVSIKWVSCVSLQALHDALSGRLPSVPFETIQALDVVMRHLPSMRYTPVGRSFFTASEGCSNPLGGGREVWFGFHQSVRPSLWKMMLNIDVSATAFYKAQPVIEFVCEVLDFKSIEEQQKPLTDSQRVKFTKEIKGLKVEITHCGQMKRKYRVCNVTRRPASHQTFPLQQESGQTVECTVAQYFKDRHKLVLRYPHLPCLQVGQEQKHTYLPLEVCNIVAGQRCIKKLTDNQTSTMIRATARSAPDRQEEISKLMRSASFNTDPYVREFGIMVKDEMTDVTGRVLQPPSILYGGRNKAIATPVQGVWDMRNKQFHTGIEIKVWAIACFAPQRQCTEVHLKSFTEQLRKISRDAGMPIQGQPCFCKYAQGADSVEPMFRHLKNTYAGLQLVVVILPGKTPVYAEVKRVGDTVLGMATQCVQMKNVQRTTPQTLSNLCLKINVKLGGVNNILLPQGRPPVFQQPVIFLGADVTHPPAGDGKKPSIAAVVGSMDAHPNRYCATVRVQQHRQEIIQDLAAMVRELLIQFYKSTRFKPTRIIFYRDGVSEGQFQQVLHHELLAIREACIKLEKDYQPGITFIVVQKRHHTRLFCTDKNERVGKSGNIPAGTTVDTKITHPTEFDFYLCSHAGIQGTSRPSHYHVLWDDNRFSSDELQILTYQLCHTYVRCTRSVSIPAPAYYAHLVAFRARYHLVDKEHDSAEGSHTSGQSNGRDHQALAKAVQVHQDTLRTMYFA

Experiments:
[1] = molecular target: T1, endogenous HOIL-1L (HeLa cells) (human (endogenous in HeLa)), Q9BYM8; assay: co-IP; endogenous proteins, HeLa lysate, co-IP with anti-HOIL-1L antibody, WB; untreated or hypoxia for indicated times; RIPA lysis buffer; details: remark: other sources report otherwise
T1 chain: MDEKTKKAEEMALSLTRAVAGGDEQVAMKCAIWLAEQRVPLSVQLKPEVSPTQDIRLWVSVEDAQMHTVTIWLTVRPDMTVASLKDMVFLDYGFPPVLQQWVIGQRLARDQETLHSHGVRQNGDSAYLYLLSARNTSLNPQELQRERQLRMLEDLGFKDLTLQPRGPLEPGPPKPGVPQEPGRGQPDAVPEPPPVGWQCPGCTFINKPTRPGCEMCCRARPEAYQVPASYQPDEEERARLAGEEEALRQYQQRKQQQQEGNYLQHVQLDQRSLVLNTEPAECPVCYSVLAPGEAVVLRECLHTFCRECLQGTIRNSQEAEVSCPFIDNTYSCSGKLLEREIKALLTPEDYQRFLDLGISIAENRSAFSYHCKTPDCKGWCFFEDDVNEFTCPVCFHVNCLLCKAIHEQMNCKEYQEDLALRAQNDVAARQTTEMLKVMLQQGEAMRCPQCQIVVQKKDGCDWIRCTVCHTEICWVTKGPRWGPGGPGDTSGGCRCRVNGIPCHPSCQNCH

[2] = molecular target: endogenous AGO2 (HeLa cells) (human (endogenous in HeLa)) (UniProt Q9UKV8); assay: co-IP; endogenous proteins, HeLa lysate, co-IP with anti-AGO2 antibody, WB; normoxia or hypoxia; also stable HOIL-1L-knockdown HeLa cells; RIPA lysis buffer
[3] = molecular target: T2, endogenous SHARPIN (HeLa cells) (human (endogenous in HeLa)), Q9H0F6; assay: co-IP; endogenous proteins, HeLa lysate, co-IP with anti-SHARPIN antibody, WB; RIPA lysis buffer; details: remark: other sources report otherwise
T2 chain: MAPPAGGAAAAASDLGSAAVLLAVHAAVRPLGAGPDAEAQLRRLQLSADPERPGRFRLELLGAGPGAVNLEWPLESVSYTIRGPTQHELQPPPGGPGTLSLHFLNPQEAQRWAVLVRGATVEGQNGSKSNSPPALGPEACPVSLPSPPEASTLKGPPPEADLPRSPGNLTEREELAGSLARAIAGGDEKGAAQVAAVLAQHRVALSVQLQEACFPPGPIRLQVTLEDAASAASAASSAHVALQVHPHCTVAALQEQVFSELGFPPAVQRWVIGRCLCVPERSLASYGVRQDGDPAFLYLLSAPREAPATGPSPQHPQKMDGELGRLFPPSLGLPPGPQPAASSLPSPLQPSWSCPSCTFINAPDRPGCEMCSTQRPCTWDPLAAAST

binding [1]: binds
B1: endogenous SHARPIN (HeLa cells), Q9H0F6 1-387 (protein)
chain: MAPPAGGAAAAASDLGSAAVLLAVHAAVRPLGAGPDAEAQLRRLQLSADPERPGRFRLELLGAGPGAVNLEWPLESVSYTIRGPTQHELQPPPGGPGTLSLHFLNPQEAQRWAVLVRGATVEGQNGSKSNSPPALGPEACPVSLPSPPEASTLKGPPPEADLPRSPGNLTEREELAGSLARAIAGGDEKGAAQVAAVLAQHRVALSVQLQEACFPPGPIRLQVTLEDAASAASAASSAHVALQVHPHCTVAALQEQVFSELGFPPAVQRWVIGRCLCVPERSLASYGVRQDGDPAFLYLLSAPREAPATGPSPQHPQKMDGELGRLFPPSLGLPPGPQPAASSLPSPLQPSWSCPSCTFINAPDRPGCEMCSTQRPCTWDPLAAAST

binding [2]: binds
B2: endogenous SHARPIN (HeLa cells) (protein, UniProt Q9H0F6 1-387)
chain: MAPPAGGAAAAASDLGSAAVLLAVHAAVRPLGAGPDAEAQLRRLQLSADPERPGRFRLELLGAGPGAVNLEWPLESVSYTIRGPTQHELQPPPGGPGTLSLHFLNPQEAQRWAVLVRGATVEGQNGSKSNSPPALGPEACPVSLPSPPEASTLKGPPPEADLPRSPGNLTEREELAGSLARAIAGGDEKGAAQVAAVLAQHRVALSVQLQEACFPPGPIRLQVTLEDAASAASAASSAHVALQVHPHCTVAALQEQVFSELGFPPAVQRWVIGRCLCVPERSLASYGVRQDGDPAFLYLLSAPREAPATGPSPQHPQKMDGELGRLFPPSLGLPPGPQPAASSLPSPLQPSWSCPSCTFINAPDRPGCEMCSTQRPCTWDPLAAAST

binding [3]: binds
B3: endogenous HOIL-1L (HeLa cells), Q9BYM8-1 1-510 (protein)
chain: MDEKTKKAEEMALSLTRAVAGGDEQVAMKCAIWLAEQRVPLSVQLKPEVSPTQDIRLWVSVEDAQMHTVTIWLTVRPDMTVASLKDMVFLDYGFPPVLQQWVIGQRLARDQETLHSHGVRQNGDSAYLYLLSARNTSLNPQELQRERQLRMLEDLGFKDLTLQPRGPLEPGPPKPGVPQEPGRGQPDAVPEPPPVGWQCPGCTFINKPTRPGCEMCCRARPEAYQVPASYQPDEEERARLAGEEEALRQYQQRKQQQQEGNYLQHVQLDQRSLVLNTEPAECPVCYSVLAPGEAVVLRECLHTFCRECLQGTIRNSQEAEVSCPFIDNTYSCSGKLLEREIKALLTPEDYQRFLDLGISIAENRSAFSYHCKTPDCKGWCFFEDDVNEFTCPVCFHVNCLLCKAIHEQMNCKEYQEDLALRAQNDVAARQTTEMLKVMLQQGEAMRCPQCQIVVQKKDGCDWIRCTVCHTEICWVTKGPRWGPGGPGDTSGGCRCRVNGIPCHPSCQNCH
